Measurements from publication PMC12398621.
These are yes or no findings as the source states them, for the method shown. In cells and extracts the contact can be indirect.

Protein sequences, listed by entry. Tags and fused reporters are not part of them.
UniProt O00571: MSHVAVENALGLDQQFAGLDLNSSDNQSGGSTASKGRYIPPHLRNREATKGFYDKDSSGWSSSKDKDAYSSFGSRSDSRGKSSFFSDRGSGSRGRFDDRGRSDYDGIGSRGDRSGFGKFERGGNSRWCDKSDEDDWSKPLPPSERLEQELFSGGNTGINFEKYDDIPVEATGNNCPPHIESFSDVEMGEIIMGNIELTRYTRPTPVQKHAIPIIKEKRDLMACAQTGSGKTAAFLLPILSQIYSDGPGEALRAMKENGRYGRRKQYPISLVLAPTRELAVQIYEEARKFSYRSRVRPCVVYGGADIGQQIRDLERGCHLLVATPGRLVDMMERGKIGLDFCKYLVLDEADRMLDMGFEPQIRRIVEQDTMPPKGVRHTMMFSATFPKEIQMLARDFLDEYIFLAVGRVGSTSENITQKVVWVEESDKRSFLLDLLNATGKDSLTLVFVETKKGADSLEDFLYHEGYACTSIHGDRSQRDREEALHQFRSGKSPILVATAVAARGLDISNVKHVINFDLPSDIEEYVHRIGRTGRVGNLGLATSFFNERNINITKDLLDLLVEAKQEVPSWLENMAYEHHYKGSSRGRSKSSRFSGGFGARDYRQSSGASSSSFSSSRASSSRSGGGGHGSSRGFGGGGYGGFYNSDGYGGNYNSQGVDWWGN

Biological target: DDX3X (UniProt O00571)
Assay: co-IP; co-immunoprecipitation in lung cancer cells; which protein was precipitated and the conditions are not told in the text shown

binding: no binding
B1: JUND (protein, UniProt P17535 1-347)
chain: METPFYGDEALSGLGGGASGSGGSFASPGRLFPGAPPTAAAGSMMKKDALTLSLSEQVAAALKPAAAPPPTPLRADGAPSAAPPDGLLASPDLGLLKLASPELERLIIQSNGLVTTTPTSSQFLYPKVAASEEQEFAEGFVKALEDLHKQNQLGAGAAAAAAAAAAGGPSGTATGSAPPGELAPAAAAPEAPVYANLSSYAGGAGGAGGAATVAFAAEPVPFPPPPPPGALGPPRLAALKDEPQTVPDVPSFGESPPLSPIDMDTQERIKAERKRLRNRIAASKCRKRKLERISRLEEKVKTLKSQNTELASTASLLREQVAQLKQKVLSHVNSGCQLLPQHQVPAY
